This is one part of the list.
Compound: CC1Cc2ccccc2N1C(=O)C1CCCN(C1)C(=O)CCl (mixture of isomers) [TRIM25 ligand 11 (diastereomer mixture)]
Test: probe-labelled cysteine peptide fold change vs DMSO (competition) (log2 fold change); higher = less target engagement (more negative = stronger competition)
Conditions: THP-1, incubation time: 4 h
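Note: competitive chemoproteomic profiling in live THP-1 cells with an iodoacetamide desthiobiotin (IA-DTB) probe, comparing probe-labelled peptide intensities in compound-treated cells against DMSO-treated controls.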

The chains behind the UniProt entries cited, without tags or fusion partners. Where a name states a change or a piece, a line headed by the entry shows the natural chain unless it says otherwise.
UniProt P57678: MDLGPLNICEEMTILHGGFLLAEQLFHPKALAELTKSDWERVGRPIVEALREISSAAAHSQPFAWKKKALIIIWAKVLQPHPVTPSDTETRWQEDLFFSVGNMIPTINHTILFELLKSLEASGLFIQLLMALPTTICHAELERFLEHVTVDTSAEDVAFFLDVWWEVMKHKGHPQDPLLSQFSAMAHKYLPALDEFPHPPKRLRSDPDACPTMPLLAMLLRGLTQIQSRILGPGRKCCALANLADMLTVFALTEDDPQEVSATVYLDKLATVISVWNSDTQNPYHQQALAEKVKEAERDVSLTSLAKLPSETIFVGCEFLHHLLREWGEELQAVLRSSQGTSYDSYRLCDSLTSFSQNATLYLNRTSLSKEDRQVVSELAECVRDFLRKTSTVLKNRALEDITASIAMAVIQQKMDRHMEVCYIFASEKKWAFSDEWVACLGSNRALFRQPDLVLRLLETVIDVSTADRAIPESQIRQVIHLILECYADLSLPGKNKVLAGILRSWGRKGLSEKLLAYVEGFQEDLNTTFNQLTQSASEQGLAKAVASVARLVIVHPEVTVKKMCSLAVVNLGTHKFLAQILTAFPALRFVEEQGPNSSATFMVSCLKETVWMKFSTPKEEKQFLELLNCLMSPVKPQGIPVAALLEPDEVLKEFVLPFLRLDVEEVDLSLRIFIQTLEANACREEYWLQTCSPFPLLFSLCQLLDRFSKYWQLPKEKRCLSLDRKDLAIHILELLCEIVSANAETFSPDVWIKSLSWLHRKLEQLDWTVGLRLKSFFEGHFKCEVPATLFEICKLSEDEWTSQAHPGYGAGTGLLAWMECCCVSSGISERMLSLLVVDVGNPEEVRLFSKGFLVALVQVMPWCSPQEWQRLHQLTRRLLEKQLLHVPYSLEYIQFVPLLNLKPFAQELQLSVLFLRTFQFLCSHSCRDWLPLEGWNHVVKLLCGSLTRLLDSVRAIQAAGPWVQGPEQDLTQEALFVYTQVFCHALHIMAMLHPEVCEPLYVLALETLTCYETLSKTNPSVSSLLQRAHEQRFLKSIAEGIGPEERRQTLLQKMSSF
UniProt Q14C86: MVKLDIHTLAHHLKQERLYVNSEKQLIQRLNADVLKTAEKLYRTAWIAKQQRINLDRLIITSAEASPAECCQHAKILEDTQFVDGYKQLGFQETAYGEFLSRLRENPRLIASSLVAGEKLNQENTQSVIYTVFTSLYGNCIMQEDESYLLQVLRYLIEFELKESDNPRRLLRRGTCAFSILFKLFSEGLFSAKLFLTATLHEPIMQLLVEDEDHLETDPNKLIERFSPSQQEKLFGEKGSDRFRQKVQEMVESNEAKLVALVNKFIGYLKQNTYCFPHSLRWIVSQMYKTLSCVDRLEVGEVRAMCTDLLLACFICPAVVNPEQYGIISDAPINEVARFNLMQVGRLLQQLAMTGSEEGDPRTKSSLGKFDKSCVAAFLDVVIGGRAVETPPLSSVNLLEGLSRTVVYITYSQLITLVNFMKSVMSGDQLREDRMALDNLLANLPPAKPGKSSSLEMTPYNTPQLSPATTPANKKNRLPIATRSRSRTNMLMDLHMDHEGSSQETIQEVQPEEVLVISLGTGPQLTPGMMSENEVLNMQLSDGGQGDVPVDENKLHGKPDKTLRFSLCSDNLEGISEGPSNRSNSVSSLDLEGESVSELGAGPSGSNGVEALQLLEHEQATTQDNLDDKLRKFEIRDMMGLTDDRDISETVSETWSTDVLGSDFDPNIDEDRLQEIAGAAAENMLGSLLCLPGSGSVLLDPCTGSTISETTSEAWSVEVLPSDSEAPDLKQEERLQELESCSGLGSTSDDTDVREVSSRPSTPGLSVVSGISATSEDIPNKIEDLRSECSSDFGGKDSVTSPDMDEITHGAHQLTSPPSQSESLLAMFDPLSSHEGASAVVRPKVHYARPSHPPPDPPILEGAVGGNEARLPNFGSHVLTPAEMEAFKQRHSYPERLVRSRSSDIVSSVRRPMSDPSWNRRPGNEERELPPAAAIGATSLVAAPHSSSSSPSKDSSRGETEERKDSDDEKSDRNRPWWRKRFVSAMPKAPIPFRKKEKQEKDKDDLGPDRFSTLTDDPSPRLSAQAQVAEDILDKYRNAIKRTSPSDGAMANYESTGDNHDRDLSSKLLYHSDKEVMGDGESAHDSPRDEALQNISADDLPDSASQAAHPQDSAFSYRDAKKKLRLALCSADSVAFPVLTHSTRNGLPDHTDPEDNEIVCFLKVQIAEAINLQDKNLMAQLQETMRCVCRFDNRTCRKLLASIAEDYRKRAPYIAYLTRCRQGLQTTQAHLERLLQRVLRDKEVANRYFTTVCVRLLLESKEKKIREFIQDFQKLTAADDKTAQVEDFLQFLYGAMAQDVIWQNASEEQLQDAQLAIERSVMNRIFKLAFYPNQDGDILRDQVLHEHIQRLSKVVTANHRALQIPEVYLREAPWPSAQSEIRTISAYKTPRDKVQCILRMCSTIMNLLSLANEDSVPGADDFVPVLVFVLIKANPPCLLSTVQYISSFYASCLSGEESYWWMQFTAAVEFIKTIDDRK
UniProt Q92616, whole entry, looked up: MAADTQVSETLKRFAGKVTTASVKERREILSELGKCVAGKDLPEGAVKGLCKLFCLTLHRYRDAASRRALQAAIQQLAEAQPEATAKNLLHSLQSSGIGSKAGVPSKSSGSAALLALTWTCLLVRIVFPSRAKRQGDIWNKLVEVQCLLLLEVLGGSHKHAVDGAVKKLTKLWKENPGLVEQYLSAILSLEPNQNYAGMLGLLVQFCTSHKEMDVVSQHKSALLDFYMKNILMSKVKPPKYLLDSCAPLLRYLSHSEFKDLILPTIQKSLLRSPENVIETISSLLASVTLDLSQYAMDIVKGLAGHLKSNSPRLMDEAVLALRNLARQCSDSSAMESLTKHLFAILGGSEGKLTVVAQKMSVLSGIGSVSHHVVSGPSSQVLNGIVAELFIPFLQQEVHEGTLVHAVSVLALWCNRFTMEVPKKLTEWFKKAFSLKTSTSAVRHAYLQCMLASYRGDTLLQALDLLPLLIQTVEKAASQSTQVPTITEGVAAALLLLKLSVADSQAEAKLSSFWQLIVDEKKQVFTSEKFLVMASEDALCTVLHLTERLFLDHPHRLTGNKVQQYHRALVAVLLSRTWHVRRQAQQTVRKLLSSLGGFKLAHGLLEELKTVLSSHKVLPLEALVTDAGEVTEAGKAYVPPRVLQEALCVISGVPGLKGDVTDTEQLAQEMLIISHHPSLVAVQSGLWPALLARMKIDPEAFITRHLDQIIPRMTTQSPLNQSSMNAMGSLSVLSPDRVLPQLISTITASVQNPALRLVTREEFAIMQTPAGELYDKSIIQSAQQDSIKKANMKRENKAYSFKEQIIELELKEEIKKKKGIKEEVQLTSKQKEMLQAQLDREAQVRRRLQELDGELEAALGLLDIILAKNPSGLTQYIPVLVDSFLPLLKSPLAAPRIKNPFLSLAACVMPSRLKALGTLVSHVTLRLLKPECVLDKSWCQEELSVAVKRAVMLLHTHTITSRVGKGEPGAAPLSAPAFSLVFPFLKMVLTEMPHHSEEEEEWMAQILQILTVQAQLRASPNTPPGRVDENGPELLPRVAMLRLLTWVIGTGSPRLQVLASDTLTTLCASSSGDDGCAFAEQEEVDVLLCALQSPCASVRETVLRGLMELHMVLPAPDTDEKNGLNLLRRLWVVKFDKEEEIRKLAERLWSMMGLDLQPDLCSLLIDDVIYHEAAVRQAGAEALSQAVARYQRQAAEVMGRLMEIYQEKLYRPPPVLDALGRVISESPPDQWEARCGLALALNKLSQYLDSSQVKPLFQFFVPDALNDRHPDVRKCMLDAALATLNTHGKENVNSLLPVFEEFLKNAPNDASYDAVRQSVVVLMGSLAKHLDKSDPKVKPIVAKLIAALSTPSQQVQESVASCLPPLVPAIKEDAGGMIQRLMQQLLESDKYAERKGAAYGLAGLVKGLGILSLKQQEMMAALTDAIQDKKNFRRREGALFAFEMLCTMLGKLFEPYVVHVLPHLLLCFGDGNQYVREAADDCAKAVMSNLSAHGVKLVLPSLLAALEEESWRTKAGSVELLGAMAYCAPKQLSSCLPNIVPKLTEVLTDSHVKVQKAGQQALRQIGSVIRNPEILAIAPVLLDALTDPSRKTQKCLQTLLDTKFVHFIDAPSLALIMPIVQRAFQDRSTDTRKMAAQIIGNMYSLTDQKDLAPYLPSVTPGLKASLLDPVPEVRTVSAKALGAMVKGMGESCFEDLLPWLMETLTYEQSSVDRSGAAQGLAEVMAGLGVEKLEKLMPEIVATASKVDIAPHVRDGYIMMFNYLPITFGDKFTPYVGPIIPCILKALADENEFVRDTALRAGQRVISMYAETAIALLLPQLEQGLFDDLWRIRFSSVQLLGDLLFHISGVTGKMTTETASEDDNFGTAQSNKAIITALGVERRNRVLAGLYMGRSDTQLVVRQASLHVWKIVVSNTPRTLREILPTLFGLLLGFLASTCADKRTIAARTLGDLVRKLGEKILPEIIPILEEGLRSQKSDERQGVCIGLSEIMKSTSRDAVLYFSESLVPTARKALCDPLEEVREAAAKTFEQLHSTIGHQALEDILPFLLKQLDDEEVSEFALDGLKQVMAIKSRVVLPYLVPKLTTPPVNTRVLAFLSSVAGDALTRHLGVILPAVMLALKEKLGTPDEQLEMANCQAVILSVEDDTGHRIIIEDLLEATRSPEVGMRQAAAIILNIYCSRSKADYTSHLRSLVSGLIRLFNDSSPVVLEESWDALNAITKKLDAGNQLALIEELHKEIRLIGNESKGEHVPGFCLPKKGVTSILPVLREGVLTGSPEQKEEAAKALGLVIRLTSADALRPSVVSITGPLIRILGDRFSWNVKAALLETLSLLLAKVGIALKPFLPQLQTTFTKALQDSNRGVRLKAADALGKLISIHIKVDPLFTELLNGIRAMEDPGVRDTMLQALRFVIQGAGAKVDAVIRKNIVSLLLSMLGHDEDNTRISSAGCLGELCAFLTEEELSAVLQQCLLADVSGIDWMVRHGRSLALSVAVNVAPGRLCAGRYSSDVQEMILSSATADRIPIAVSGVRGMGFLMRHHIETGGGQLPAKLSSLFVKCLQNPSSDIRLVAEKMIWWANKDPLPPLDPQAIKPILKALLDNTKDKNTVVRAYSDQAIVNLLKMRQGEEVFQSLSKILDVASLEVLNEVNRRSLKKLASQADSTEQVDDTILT
UniProt Q04446: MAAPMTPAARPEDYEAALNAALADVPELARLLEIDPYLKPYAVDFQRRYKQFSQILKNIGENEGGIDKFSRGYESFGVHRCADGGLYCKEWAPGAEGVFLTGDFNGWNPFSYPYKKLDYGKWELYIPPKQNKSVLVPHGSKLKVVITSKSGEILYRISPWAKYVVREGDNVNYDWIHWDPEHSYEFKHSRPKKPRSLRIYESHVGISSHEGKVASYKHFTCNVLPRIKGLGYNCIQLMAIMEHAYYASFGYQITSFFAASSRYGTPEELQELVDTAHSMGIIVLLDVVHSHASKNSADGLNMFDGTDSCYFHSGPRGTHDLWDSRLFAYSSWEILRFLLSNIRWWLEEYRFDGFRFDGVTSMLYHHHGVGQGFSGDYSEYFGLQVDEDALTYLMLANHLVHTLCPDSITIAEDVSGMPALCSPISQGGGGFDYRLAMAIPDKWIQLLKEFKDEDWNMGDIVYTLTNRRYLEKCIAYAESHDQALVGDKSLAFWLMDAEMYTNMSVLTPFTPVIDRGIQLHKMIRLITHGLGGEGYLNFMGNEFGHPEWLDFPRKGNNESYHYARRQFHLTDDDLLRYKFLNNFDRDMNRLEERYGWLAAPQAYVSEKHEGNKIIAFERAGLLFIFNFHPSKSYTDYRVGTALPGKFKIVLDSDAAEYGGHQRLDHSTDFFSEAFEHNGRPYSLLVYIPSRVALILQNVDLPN
UniProt Q8N2G8: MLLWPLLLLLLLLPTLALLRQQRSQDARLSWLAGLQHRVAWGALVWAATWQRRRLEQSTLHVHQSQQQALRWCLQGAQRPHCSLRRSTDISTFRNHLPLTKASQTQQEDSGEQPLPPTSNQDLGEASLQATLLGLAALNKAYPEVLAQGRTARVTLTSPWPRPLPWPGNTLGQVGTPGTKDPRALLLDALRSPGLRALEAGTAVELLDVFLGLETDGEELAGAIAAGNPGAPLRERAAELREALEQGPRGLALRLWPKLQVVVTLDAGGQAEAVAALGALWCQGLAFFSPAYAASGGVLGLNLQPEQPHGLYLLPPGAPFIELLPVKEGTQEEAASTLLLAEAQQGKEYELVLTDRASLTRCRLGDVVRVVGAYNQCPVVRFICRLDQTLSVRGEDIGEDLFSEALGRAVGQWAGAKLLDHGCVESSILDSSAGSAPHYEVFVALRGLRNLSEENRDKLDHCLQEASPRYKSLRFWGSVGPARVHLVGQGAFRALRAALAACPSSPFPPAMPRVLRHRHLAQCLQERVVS
UniProt Q9H840: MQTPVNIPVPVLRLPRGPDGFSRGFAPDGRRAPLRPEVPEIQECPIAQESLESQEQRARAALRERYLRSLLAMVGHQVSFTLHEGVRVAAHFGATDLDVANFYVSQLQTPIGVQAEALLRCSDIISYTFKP

Target | probe-labelled cysteine peptide fold change (10 µM) | probe-labelled cysteine peptide fold change (50 µM)
GART_P22102_941_GSNAHEQALETGVTVTGCTVHFVAEDVDAGQIILQEAVPVKR (UniProt P22102) | -0.0918 | 0.156
GGNBP2_Q9H3C7_92_EVLSALSQLVPCVGCR (UniProt Q9H3C7) | 0.146 | 0.0528
GARS_P41250_442+444_FRQHMENEMAHYACDCWDAESK (UniProt P41250) | -0.119 | -0.105
GBF1_Q92538_1430_IFVEASLNGGCK (UniProt Q92538) | -0.0258 | -0.122
GEN1_Q17RS7_634_SEVESELSAIPDGFENIPEQLSCESER (UniProt Q17RS7) | -0.0996 | 0.0681
GIPC1_O14908_100_LPTAEVMFCTLNTHK (UniProt O14908) | 0.231 | 0.118
GANAB_Q14697_822_RSSECMKDDPITLFVALSPQGTAQGELFLDDGHTFNYQTR (UniProt Q14697) | -0.296 | -0.0748
GEMIN4_P57678_317_LPSETIFVGCEFLHHLLR (UniProt P57678) | 0.0505 | 0.0534
GAPVD1_Q14C86_1160_NGLPDHTDPEDNEIVCFLK (UniProt Q14C86) | -0.084 | -0.00899
GCC2_Q8IWJ2_48_CTELEK (UniProt Q8IWJ2) | -0.0382 | 0.0146
GATM_P50440_410_NANSLGGGFHCWTCDVR (UniProt P50440) | 0.0413 | 0.182
GIPC3_Q8TF64_79_IAEAFGIAPTEILFCTLNSHK (UniProt Q8TF64) | 0.0131 | -0.0214
GAPVD1_Q14C86_1253_YFTTVCVR (UniProt Q14C86) | 0.0755 | 0.156
GCAT_O75600_219_LVATDGAFSMDGDIAPLQEICCLASR (UniProt O75600) | 0.26 | 0.0439
GFI1_Q99684_155_GAGLGLFCEPAPEPGHPAALYGPK (UniProt Q99684) | -0.107 | -0.191
GID8_Q9NWU2_139_ECLTEMER (UniProt Q9NWU2) | 0.00151 | -0.0683
GBF1_Q92538_613_KETARPSCEIVDGTR (UniProt Q92538) | -0.0436 | -0.271
GATB_O75879_115_CVEAAVMTGLALNCHINKK (UniProt O75879) | -0.19 | 0.188
GFI1_Q99684_398_HTGFKPFGCDLCGK (UniProt Q99684) | 0.0767 | 0.0682
GANAB_Q14697_423_DEADVLEVDQGFDDHNLPCDVIWLDIEHADGKR (UniProt Q14697) | 0.162 | -0.111
GIT2_Q14161_122_LPCRDDDSVTAK (UniProt Q14161) | -0.0143 | -0.063

Target | probe-labelled cysteine peptide fold change (10 µM) | probe-labelled cysteine peptide fold change (50 µM)
GIT1_Q9Y2X7_222_LVECQYELTDR (UniProt Q9Y2X7) | 0.172 | 0.175
GCN1_Q92616_2015_ALCDPLEEVR (UniProt Q92616) | 0.0761 | 0.0471
GGPS1_O95749_138_DNYTCPTEEEYK (UniProt O95749) | 0.147 | 0.142
GAK_O14976_691_YDLDACDIQEK (UniProt O14976) | 0.0279 | -0.0486
GFM2_Q969S9_329_VTLAQTAVPVLCGSALK (UniProt Q969S9) | -0.00993 | 0.0905
GATD3B_A0A0B4J2D5_244_VVTTPAFMCETALHYIHDGIGAMVR | 0.00433 | –
GAK_O14976_599_SGCRPFCEVYVGDER (UniProt O14976) | -0.0153 | -0.0137
GAPVD1_Q14C86_293_TLSCVDRLEVGEVR (UniProt Q14C86) | 0.185 | 0.128
GCLM_P48507_72_EFPDVLECTVSHAVEK (UniProt P48507) | 0.0379 | 0.0286
GARS_P41250_461_TSYGWIEIVGCADR (UniProt P41250) | 0.0856 | 0.0911
GBE1_Q04446_221_HFTCNVLPR (UniProt Q04446) | 0.0806 | 0.0818
GAPDH_P04406_152_IISNASCTTNCLAPLAK (UniProt P04406) | -0.00264 | 0.0221
GALE_Q14376_330_MCEDLWR (UniProt Q14376) | -0.0942 | 0.0819
GINS1_Q14691_75_CTVAYLYDR (UniProt Q14691) | 0.027 | 0.259
GGCX_P38435_343_AAPQPSVSCVYK (UniProt P38435) | -0.0312 | 0.052
GART_P22102_93_SAGVQCFGPTAEAAQLESSKR (UniProt P22102) | -0.13 | -0.00804
GALNT7_Q86SF2_197_SVNDLRQEECK (UniProt Q86SF2) | 0.131 | 0.00904
GAPDH_P04406_152+156_IISNASCTTNCLAPLAK (UniProt P04406) | -0.0357 | 0.0175
GID8_Q9NWU2_139_QRETEAALEFAQTQLAEQGEESRECLTEMER (UniProt Q9NWU2) | 0.0989 | -0.0412
GEMIN5_Q8TEQ6_676_EEPLCNFR (UniProt Q8TEQ6) | 0.0316 | 0.0281
GHDC_Q8N2G8_423_LLDHGCVESSILDSSAGSAPHYEVFVALR (UniProt Q8N2G8) | -0.0969 | -0.173

Target | probe-labelled cysteine peptide fold change (10 µM) | probe-labelled cysteine peptide fold change (50 µM)
GEMIN4_P57678_486_QVIHLILECYADLSLPGK (UniProt P57678) | -0.107 | 0.0143
GAN_Q9H2C0_415_IGCYAAMK (UniProt Q9H2C0) | -0.0456 | -0.0292
GATAD2A_Q86YP4_6_TEEACR (UniProt Q86YP4) | 0.138 | 0.115
GANAB_Q14697_47_TCEESSFCK (UniProt Q14697) | 0.106 | 0.228
GATM_P50440_407+410_NANSLGGGFHCWTCDVR (UniProt P50440) | -0.0127 | -0.0457
GFPT1_Q06210_392_LILIACGTSYHAGVATR (UniProt Q06210) | -0.103 | 0.193
GBE1_Q04446_88_CADGGLYCK (UniProt Q04446) | 0.000309 | 0.0761
GATM_P50440_50_NSCAADDK (UniProt P50440) | -0.154 | -0.254
GEMIN4_P57678_210_LRSDPDACPTMPLLAMLLR (UniProt P57678) | -0.252 | -0.0506
GALNT7_Q86SF2_562_TNGGFVELGPCHR (UniProt Q86SF2) | 0.112 | 0.133
GDI2_P50395_335_KSDIYVCMISFAHNVAAQGK (UniProt P50395) | 0.0667 | 0.113
GAMT_Q14353_169_LLKPGGVLTYCNLTSWGELMK (UniProt Q14353) | 0.0945 | 0.125
GEMIN5_Q8TEQ6_1477_SHFPGCLAQEMQQQAQELLQK (UniProt Q8TEQ6) | 0.113 | 0.14
GALNT2_Q10471_227+229_VLTFLDSHCECNEHWLEPLLER (UniProt Q10471) | -0.0307 | -0.011
GIPC3_Q8TF64_168_EGSIINRIEAVCVGDSIEAINDHSIVGCR (UniProt Q8TF64) | -0.368 | -0.0169
GALT_P07902_180+187_GAMMGCSNPHPHCQVWASSFLPDIAQR (UniProt P07902) | 0.12 | 0.119
GIGYF2_Q6Y7W6_573_RACDESFQPLGDIMK (UniProt Q6Y7W6) | 0.0526 | 0.0298
GFI1_Q99684_342+345_SSTLSTHLLIHSDTRPYPCQYCGK (UniProt Q99684) | 0.175 | 0.0418
GATB_O75879_228_AGVGLLEVVLEPDMSCGEEAATAVR (UniProt O75879) | -0.141 | -0.0354
GDI2_P50395_202_FDLGQDVIDFTGHALALYRTDDYLDQPCYETINR (UniProt P50395) | -0.34 | -0.227
GDPD1_Q8N9F7_75_IGTDMLELDCHITK (UniProt Q8N9F7) | -0.221 | -0.4

Target | probe-labelled cysteine peptide fold change (10 µM) | probe-labelled cysteine peptide fold change (50 µM)
GIMAP2_Q9UG22_98_CYLLSAPGPHVLLLVTQLGR (UniProt Q9UG22) | -0.107 | 0.289
GAPVD1_Q14C86_789_IEDLRSECSSDFGGK (UniProt Q14C86) | -0.0753 | -0.101
GEMIN7_Q9H840_44_RAPLRPEVPEIQECPIAQESLESQEQR (UniProt Q9H840) | -0.154 | -0.558
GCN1_Q92616_907_NPFLSLAACVMPSR (UniProt Q92616) | -0.253 | 0.223
GEMIN7_Q9H840_44_APLRPEVPEIQECPIAQESLESQEQR (UniProt Q9H840) | -0.0124 | -0.0042
GIT1_Q9Y2X7_31_GVLVCDECCSVHR (UniProt Q9Y2X7) | 0.162 | 0.0222
GAPDH_P04406_247_LTGMAFRVPTANVSVVDLTCR (UniProt P04406) | -0.459 | -0.142
GAK_O14976_87_AIIQEVCFMK (UniProt O14976) | -0.0317 | -0.101
GANC_Q8TET4_758_TFAHWEGGCTVK (UniProt Q8TET4) | 0.0494 | 0.157
GCN1_Q92616_2136_LGTPDEQLEMANCQAVILSVEDDTGHR (UniProt Q92616) | 0.097 | -0.0335
GDI1_P31150_335_KSDIYVCMISYAHNVAAQGK (UniProt P31150) | 0.0564 | 0.11
GIT1_Q9Y2X7_122_LPCRDDDGVTAK (UniProt Q9Y2X7) | -0.0269 | -0.0357
GGA2_Q9UJY4_429_NLLDLLSAQPAPCPLNYVSQK (UniProt Q9UJY4) | -0.13 | -0.15
GFM1_Q96RP9_256_QELIECVANSDEQLGEMFLEEK (UniProt Q96RP9) | -0.056 | -0.154
GATD1_Q8NB37_122_ILQHFHSESKPICAVGHGVAALCCATNEDR (UniProt Q8NB37) | -0.0391 | -0.0597
GATM_P50440_131_AVAEIEEMCNILK (UniProt P50440) | 0.0369 | 0.0694
GARS_P41250_231_KCSVEK (UniProt P41250) | -0.148 | -0.0654
GATAD2B_Q8WXI9_420+423_VEPFVCAQCR (UniProt Q8WXI9) | -0.0929 | -0.0885
GHDC_Q8N2G8_462_LDHCLQEASPR (UniProt Q8N2G8) | 0.29 | 0.427
